PubChem BioAssay AID1159584 – Peter MacCallum Cancer Centre, 2016
Shown is a random part of about 18,000 deposited reagents. Further read-outs or replicates are left out here. No sequences are given here. The record does not give: the amount of reagent, the time to read-out.

Purpose: 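Genes that CDH1-null MCF10A cells selectively depend on to survive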 (primary screen)
System: human MCF10A breast epithelial cells, parental and CDH1-null
Reagent: siRNA against human genes
Read-out: 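Cell viability by CellTiter-Glo ATP luminescence, each line scaled to the mean of mock wells across plates, then CDH1-null over parental ratio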
Scale: CDH1-null / parental viability ratio: higher = CDH1-null cells survive relatively better than parental; CDH1-null viability vs mock: higher = more viable CDH1-null cells
Units: CDH1-null viability vs mock in fraction of mock

Silencing of ANKRD27 resulted in: CDH1-null / parental viability ratio 1.17; CDH1-null viability vs mock 0.88. Knock-down of SH3TC1 resulted in: CDH1-null / parental viability ratio 0.9; CDH1-null viability vs mock 0.66. With knock-down of KIAA0319L, the screen gave CDH1-null / parental viability ratio 1.13; CDH1-null viability vs mock 0.77. For GSPT1 the deposit lists CDH1-null / parental viability ratio 0.95; CDH1-null viability vs mock 0.54. With knock-down of PCBP2, the screen gave CDH1-null / parental viability ratio 0.96; CDH1-null viability vs mock 0.75. Silencing of EAF1 resulted in: CDH1-null / parental viability ratio 0.97; CDH1-null viability vs mock 0.57.

ERAS scored CDH1-null / parental viability ratio 0.82; CDH1-null viability vs mock 0.72. For MEIOC, the entry reads CDH1-null / parental viability ratio 0.97; CDH1-null viability vs mock 1.01. Silencing of PABPC5 gave: CDH1-null / parental viability ratio 1; CDH1-null viability vs mock 0.8. For PITPNC1, the entry reads CDH1-null / parental viability ratio 0.76; CDH1-null viability vs mock 0.61. Against VEZT the deposit lists CDH1-null / parental viability ratio 0.95; CDH1-null viability vs mock 0.69. With knock-down of ANKRD36B, the record shows CDH1-null / parental viability ratio 1.2; CDH1-null viability vs mock 1.25.

LEMD1 gave CDH1-null / parental viability ratio 1.11; CDH1-null viability vs mock 0.98. Depletion of ARL6IP1 gave: CDH1-null / parental viability ratio 0.9; CDH1-null viability vs mock 0.78. AMOT showed CDH1-null / parental viability ratio 0.92; CDH1-null viability vs mock 0.88. Silencing of FUT7 gave: CDH1-null / parental viability ratio 0.98; CDH1-null viability vs mock 0.92. Depletion of IFNA16 came out at: CDH1-null / parental viability ratio 1.43; CDH1-null viability vs mock 0.8. PIGM showed CDH1-null / parental viability ratio 1.03; CDH1-null viability vs mock 0.69.

Knock-down of LINC01465 came out at: CDH1-null / parental viability ratio 0.84; CDH1-null viability vs mock 0.61. Knock-down of KLC1 gave: CDH1-null / parental viability ratio 1.24; CDH1-null viability vs mock 0.94. Against PSME3 the deposit lists CDH1-null / parental viability ratio 1.21; CDH1-null viability vs mock 1.02. Knock-down of CARNMT1 came out at: CDH1-null / parental viability ratio 0.83; CDH1-null viability vs mock 0.52. Against ERF, the entry reads CDH1-null / parental viability ratio 0.89; CDH1-null viability vs mock 0.88. After knock-down of FSTL3 the results were CDH1-null / parental viability ratio 0.94; CDH1-null viability vs mock 0.51.

For ARAP3 the deposit lists CDH1-null / parental viability ratio 1.35; CDH1-null viability vs mock 0.7. CLCF1 scored CDH1-null / parental viability ratio 1; CDH1-null viability vs mock 0.78. Against AOAH, the entry reads CDH1-null / parental viability ratio 0.93; CDH1-null viability vs mock 0.76. Against SGPL1 the deposit lists CDH1-null / parental viability ratio 0.99; CDH1-null viability vs mock 1.02. With knock-down of USP47 the results were CDH1-null / parental viability ratio 1.04; CDH1-null viability vs mock 0.83. Knock-down of IFNA21 came out at: CDH1-null / parental viability ratio 1.38; CDH1-null viability vs mock 0.88.

For SH3RF2 the deposit lists CDH1-null / parental viability ratio 1.05; CDH1-null viability vs mock 1.01. Against OPA1, the values are CDH1-null / parental viability ratio 1.35; CDH1-null viability vs mock 0.84. TKFC showed CDH1-null / parental viability ratio 0.93; CDH1-null viability vs mock 0.63. For VWC2L the deposit lists CDH1-null / parental viability ratio 1.22; CDH1-null viability vs mock 0.67. Depletion of GABRG2 gave: CDH1-null / parental viability ratio 1.31; CDH1-null viability vs mock 0.94.

Reprinted from the entries so far (2 entries):
SH3TC1 | CDH1-null / parental viability ratio: 0.9; CDH1-null viability vs mock: 0.66
KIAA0319L | CDH1-null / parental viability ratio: 1.13; CDH1-null viability vs mock: 0.77
